Measured data: PubChem BioAssay AID1259307 (Sanger Institute, 2017)
Aim: 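Identify kinases needed for SW620 growth or enhancing BYL719, cetuximab or trametinib effects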 (primary screen). System: SW620 colorectal cancer cells. Reagents: siRNA pool against human genes. Conditions: anchor drugs BYL719 at 1 µM, cetuximab at 5 µg/ml or trametinib at 10 nM, each beside a DMSO vehicle arm. Measured: 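Per-well viability versus non-targeting control pool, replicate-averaged, robust z-score from controls; synergy scores for BYL719 1 µM, cetuximab 5 µg/ml, trametinib 10 nM against DMSO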. Reading the numbers: viability robust z-score, no drug and viability vs control, no drug: higher = more viable cells. Active means: 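a knock-down counts as lethal alone if its drug-free robust viability z-score is lower than -3, regardless of synergy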. Meaning of the calls: active = essential (lethal alone); inactive = no change alone.
In all, the deposit lists 794 reagents; this is a part drawn at random. Of all reagents, 15 (1.9%) were called active. 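Calls reflect lethality without any drug; synergy scores did not enter the calls.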 Viability is capped at 1. Not all columns of the deposit are shown. Not stated in the record: the amount of reagent, the time to read-out.

With SKAP1, what was measured?
viability robust z-score, no drug: 0.433; viability vs control, no drug: 0.972; Outcome: inactive

How did the screen score MAP3K19?
viability robust z-score, no drug: 0.269; viability vs control, no drug: 0.957; Outcome: inactive

What is on record for KHK?
viability robust z-score, no drug: 0.178; viability vs control, no drug: 0.948; Outcome: inactive

What did the screen give for ERBB4?
viability robust z-score, no drug: 0.736; viability vs control, no drug: 1; Outcome: inactive

How did the screen score PMVK?
viability robust z-score, no drug: -0.516; viability vs control, no drug: 0.884; Outcome: inactive

For STK36, how do the results read?
viability robust z-score, no drug: 0.736; viability vs control, no drug: 1; Outcome: inactive

For CDKN2C, how do the results read?
viability robust z-score, no drug: 0.736; viability vs control, no drug: 1; Outcome: inactive

What did the screen give for NUP62?
viability robust z-score, no drug: -1.83; viability vs control, no drug: 0.763; Outcome: inactive

Reformatted: results already given
target,"viability robust z-score, no drug","viability vs control, no drug",Outcome
MAP3K19,0.269,0.957,inactive
KHK,0.178,0.948,inactive

Additional reagents follow.
How did the screen score GRK2?
viability robust z-score, no drug: 0.127; viability vs control, no drug: 0.944; Outcome: inactive

How did the screen score SYNCRIP?
viability robust z-score, no drug: -2.39; viability vs control, no drug: 0.712; Outcome: inactive

Which result is listed for PHKG2?
viability robust z-score, no drug: 0.736; viability vs control, no drug: 1; Outcome: inactive

With PLK4, what does the deposit list?
viability robust z-score, no drug: -1.38; viability vs control, no drug: 0.805; Outcome: inactive

How did the screen score PRP4K?
viability robust z-score, no drug: -0.937; viability vs control, no drug: 0.846; Outcome: inactive

For CDKL2, what does the deposit list?
viability robust z-score, no drug: 0.736; viability vs control, no drug: 1; Outcome: inactive

What did the screen give for CSNK1G3?
viability robust z-score, no drug: 0.736; viability vs control, no drug: 1; Outcome: inactive

How did the screen score AXL?
viability robust z-score, no drug: 0.277; viability vs control, no drug: 0.958; Outcome: inactive

What did the screen give for PHKA1?
viability robust z-score, no drug: 0.736; viability vs control, no drug: 1; Outcome: inactive

What is on record for SBK1?
viability robust z-score, no drug: 0.333; viability vs control, no drug: 0.963; Outcome: inactive

For WIPF1, how do the results read?
viability robust z-score, no drug: -1.23; viability vs control, no drug: 0.818; Outcome: inactive
